Drawing on patent US20230055566A1, this text covers binding for 3 molecules.

Amino acid sequences for entries named in this document (tags omitted). A change or cut given only in a name is not applied to a line headed by its entry. Chains listed by the source or under a name are the forms on record and can include a tag or linker.
recombinant human FGFR1b-Fc (P11362, form named): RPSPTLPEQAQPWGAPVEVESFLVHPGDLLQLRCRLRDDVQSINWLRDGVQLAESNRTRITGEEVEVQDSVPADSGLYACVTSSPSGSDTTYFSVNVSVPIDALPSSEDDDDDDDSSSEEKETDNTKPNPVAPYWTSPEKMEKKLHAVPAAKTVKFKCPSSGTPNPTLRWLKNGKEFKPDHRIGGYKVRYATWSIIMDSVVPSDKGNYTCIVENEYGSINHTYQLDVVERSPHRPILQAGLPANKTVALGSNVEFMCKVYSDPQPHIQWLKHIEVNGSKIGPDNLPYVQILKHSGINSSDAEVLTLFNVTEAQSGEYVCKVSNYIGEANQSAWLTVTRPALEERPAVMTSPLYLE

Positions count from the first letter of the chain named. Results are given in words; binding and its absence hold for the method and conditions named. Some results given as binding are weak or reduced against the parent protein; the word gives no strength.

Assay [1] addresses recombinant human FGFR1b-Fc (human) (UniProt P11362). The experiment in a line: SPR (Biacore). On the technique in general: Surface plasmon resonance follows binding to a sensor surface in real time, without labels.
The target is the same in assay [2]. The experiment in a line: ELISA on FGFR family Fc fusion proteins.
The target is the same in assay [3]. The experiment in a line: ELISA, plate coated with HuFGFR1b. (In general: ELISA stands for enzyme-linked immunosorbent assay.)

B1: Ab hu21-26 (antibody, human IgG1, V domains shown)
VH: EVQLVQSGAEVKKPGASVKVSCKASGYTFTNYWMHWVRQAPGQGLEWMGAIYPENRDINYNQKFKGRVTLTRDTSISTAYMELSRLRSDDTAVYYCTSRGDYWGQGTTVTVSS
VL: AIQLTQSPSSLSASVGDRVTITCSASSGLSYMSWYQQKPGKAPKLLIYDTSNLASGVPSRFSGSGSGTDFTLTISSLQPEDFATYYCQQWSSYPYTFGQGTKLEIK
As to B1, the binding entry in assay [1] and in assay [2] was “binds” in each case.

B2: Ab hu21-21 (antibody, V domains shown)
VH: B1 VH with R56G
VL: B1 VL
B2: the binding entry in assay [1] and in assay [2] was “binds” in each case.

B3: Ab 21 (antibody, V domains shown)
VH: EVQLHQSGTVLARPGASVKMSCKTSGYTFTNYWMHWIKQRPGQGLEWIGAIYPENGDINYNQKFKGKAKLTAVTSASTAYMDLSSLTNEDSAVYYCTSRGDYWGQGTTLTVSS
VL: QIVLTQSPAIMSASPGEKVTMTCSASSGLSYMSWYQQKPGSSPRLLIYDTSNLASGVPVRFSGSGSGTSYSLTISRMEAEDAATYYCQQWSSYPYTFGGGTKLEIK
Regarding B3, the binding result in assay [2] and in assay [3] was “binds” each time.
